For the test, the target named is T1, ERK2, P63086.
T1 chain: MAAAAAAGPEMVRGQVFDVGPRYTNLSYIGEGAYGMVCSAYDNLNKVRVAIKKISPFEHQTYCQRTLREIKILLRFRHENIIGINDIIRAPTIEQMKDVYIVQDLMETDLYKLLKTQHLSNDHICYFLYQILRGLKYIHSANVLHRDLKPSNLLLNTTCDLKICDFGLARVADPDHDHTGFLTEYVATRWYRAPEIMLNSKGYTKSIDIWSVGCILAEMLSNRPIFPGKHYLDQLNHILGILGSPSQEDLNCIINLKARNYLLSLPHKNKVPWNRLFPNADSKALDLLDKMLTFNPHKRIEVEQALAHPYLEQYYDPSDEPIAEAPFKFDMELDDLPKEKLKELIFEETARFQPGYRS
As to the kind of experiment: cross-linking; BS3 (0.1-1 mM), 100 mM HEPES pH 7.5, 300 mM NaCl, 2.2-5.54 µg/µl complex, 30-120 min, 0-25 °C, no ATP; ERK2 alone, PTP-SL alone and the complex in parallel under the same conditions; products analysed by SDS-PAGE, SEC in SDS and DTT, MALDI-TOF of the product and of its tryptic peptides; both purified. Conditions: remark: other sources report otherwise.

No constants are given. Whether binding was seen depends on the method and setting. Some binding calls cover weakened binding; strength is not graded here.

B1: ERK2, P63086 1-358 (enzyme)
chain: MAAAAAAGPEMVRGQVFDVGPRYTNLSYIGEGAYGMVCSAYDNLNKVRVAIKKISPFEHQTYCQRTLREIKILLRFRHENIIGINDIIRAPTIEQMKDVYIVQDLMETDLYKLLKTQHLSNDHICYFLYQILRGLKYIHSANVLHRDLKPSNLLLNTTCDLKICDFGLARVADPDHDHTGFLTEYVATRWYRAPEIMLNSKGYTKSIDIWSVGCILAEMLSNRPIFPGKHYLDQLNHILGILGSPSQEDLNCIINLKARNYLLSLPHKNKVPWNRLFPNADSKALDLLDKMLTFNPHKRIEVEQALAHPYLEQYYDPSDEPIAEAPFKFDMELDDLPKEKLKELIFEETARFQPGYRS
With B1, the binding result was “binds”.
